Results taken from ChEMBL document CHEMBL4513141, “CO-ADD screening of NIH (USA) - Clinical Collection” (2021).
The other results are listed elsewhere or left out. Results with a measured potency or affinity are listed apart.

Test system: Acinetobacter baumannii
Details: Concentration 20 uM; ASSAY_TEST Inhibition of Bacterial Growth; detection method Absorption (OD600); MEDIA CAMHB; plate type 384well; NBS; CORNING #3640; time 18 hr

Row | Compound | Inhibition [%]
1 | CCCC(C)(COC(N)=O)COC(=O)NC(C)C (stereo not drawn) [CARISOPRODOL] | 6.33
2 | COc1cc2c(cc1OC)[C@@]13CCN4CC5=CCO[C@H]6CC(=O)N2[C@H]1[C@H]6[C@H]5C[C@H]43 [BRUCINE] | 30.1
3 | CCCCCNC(=N)N/N=C/c1c[nH]c2ccc(OC)cc12.O=C(O)/C=C\C(=O)O [TEGASEROD MALEATE] | 27.3
4 | NC(=O)OCCCc1ccccc1 [PHENPROBAMATE] | 19.95
5 | Cc1ccnc2c1NC(=O)c1cccnc1N2C1CC1 [NEVIRAPINE] | 29.17
6 | N=C(NCc1ccc(Cl)cc1)SCCCc1c[nH]cn1 [CLOBENPROPIT] | 28.35
7 | CN1CCN(C2=Nc3cc(Cl)ccc3Nc3ccccc32)CC1 [CLOZAPINE] | 17.19
8 | Brc1c(NC2=NCCN2)ccc2nccnc12 [BRIMONIDINE] | 22.06
9 | CN1CC[C@@]23CCCC[C@@H]2[C@@H]1Cc1ccc(O)cc13.O=C(O)C(O)C(O)C(=O)O | 17.08
10 | Cl.O=C1CC[C@@]2(O)[C@H]3Cc4ccc(O)c5c4[C@@]2(CCN3CC2CC2)[C@H]1O5 [NALTREXONE HYDROCHLORIDE] | 25.96
11 | CCN(CC)CCOC(=O)C(O)(c1ccccc1)c1ccccc1.Cl | 22.1
12 | c1ccc2c3c([nH]c2c1)CNCC3 [TRYPTOLINE] | 22.02
13 | CN(C)CCc1c[nH]c2ccc(Cn3cncn3)cc12.O=C(O)c1ccccc1 [RIZATRIPTAN BENZOATE] | 21.33
14 | CC(=O)CC(c1ccccc1)c1c([O-])c2ccccc2oc1=O.[Na+] (stereo not drawn) [WARFARIN SODIUM] | 8.67
15 | C=C(C)[C@@H]1[C@H]2OC(=O)[C@@H]1[C@]1(O)C[C@H]3O[C@]34C(=O)O[C@H]2[C@]14C.CC(C)(O)[C@@H]1[C@H]2OC(=O)[C@@H]1[C@]1(O)C[C@H]3O[C@]34C(=O)O[C@H]2[C@]14C | 14.4
16 | Br.COc1ccc2c(c1)[C@]13CCCC[C@@H]1[C@H](C2)N(C)CC3.O [DEXTROMETHORPHAN HYDROBROMIDE] | 19.84
17 | CC(C)C(=O)Nc1ccc([N+](=O)[O-])c(C(F)(F)F)c1 [FLUTAMIDE] | 31.86
18 | Br.Br.CN1CC[C@]2(c3cccc(O)c3)Cc3nc4ccccc4cc3C[C@H]2C1.O | 30.58
19 | O.O=P1(N(CCCl)CCCl)NCCCO1 (stereo not drawn) [CYCLOPHOSPHAMIDE] | 0.33
20 | CNCC(O)c1ccc(O)cc1 (stereo not drawn) [OXEDRINE] | 11.3
21 | CN1C(=O)COc2c(C(=O)NC3CN4CCC3CC4)cc(Cl)cc21.Cl (stereo not drawn) | 29.29
22 | CC(NC(C)(C)C)C(=O)c1cccc(Cl)c1.Cl (stereo not drawn) [BUPROPION HYDROCHLORIDE] | 9.05
23 | C#C[C@]1(O)CC[C@H]2[C@@H]3CCC4=CC(=O)CC[C@@H]4[C@H]3CC[C@@]21C [NORETHINDRONE] | 8.92
24 | CNS(=O)(=O)Cc1ccc2[nH]cc(CCN(C)C)c2c1.O=C(O)CCC(=O)O [SUMATRIPTAN SUCCINATE] | 16.66
25 | C[N+]1(C)CCC(OC(=O)C(O)(c2ccccc2)C2CCCC2)C1.[Br-] (stereo not drawn) [GLYCOPYRRONIUM BROMIDE] | 23.88

Row | Compound | Inhibition [%]
26 | COc1cc(-c2ccc(=O)[nH]n2)ccc1OC(F)F [ZARDAVERINE] | 22
27 | CC[C@]1(O)CC[C@H]2[C@@H]3CCC4=CCCC[C@@H]4[C@H]3CC[C@@]21C [ETHYLESTRENOL] | 5.48
28 | Cl.NCCc1ccc(O)c(O)c1 [DOPAMINE HYDROCHLORIDE] | 19.73
29 | NC1=NC(=O)C(c2ccccc2)O1 (stereo not drawn) [PEMOLINE] | 28.09
30 | CN1CCN2c3ncccc3Cc3ccccc3C2C1 (stereo not drawn) [MIRTAZAPINE] | 8.49
31 | CCCN1C[C@H](CSC)C[C@@H]2c3cccc4[nH]cc(c34)C[C@H]21.CS(=O)(=O)O [PERGOLIDE MESYLATE] | 29.64
32 | CNCCC(Oc1ccc(C(F)(F)F)cc1)c1ccccc1.Cl (stereo not drawn) [FLUOXETINE HYDROCHLORIDE] | 17.55
33 | CN1CCN(C(=O)O[C@H]2c3nccnc3C(=O)N2c2ccc(Cl)cn2)CC1 [ESZOPICLONE] | 4.49
34 | O=C1Nc2ccc(Cl)cc2C(c2ccccc2Cl)=NC1O (stereo not drawn) [LORAZEPAM] | 6.82
35 | c1ccc2c(c1)Nc1ccccc1S2 [PHENOTHIAZINE] | 6.97
36 | C[C@]12CC[C@H](O)CC1=CC[C@@H]1[C@@H]2CC[C@@]2(C)[C@H]1CC[C@]2(C)O [METHANDRIOL] | 3.72
37 | COC(=O)C[C@](O)(CCCC(C)(C)O)C(=O)O[C@@H]1C(OC)=C[C@]23CCCN2CCc2cc4c(cc2[C@H]13)OCO4 [OMACETAXINE MEPESUCCINATE] | 6.01
38 | C[C@]12CC(C=O)=C(O)C[C@@H]1CC[C@@H]1[C@@H]2CC[C@@]2(C)[C@H]1CC[C@]2(C)O | 14.03
39 | CC(C)N(CCC(C(N)=O)(c1ccccc1)c1ccccn1)C(C)C.O=P(O)(O)O (stereo not drawn) [DISOPYRAMIDE PHOSPHATE] | 26.82
40 | c1ccc(Cn2ccnc2)cc1 | 19.13
41 | CC(C)NCC(O)COc1cccc2[nH]ccc12 (stereo not drawn) [PINDOLOL] | 24.44
42 | CCC(COC(=O)c1cc(OC)c(OC)c(OC)c1)(c1ccccc1)N(C)C.O=C(O)/C=C\C(=O)O (stereo not drawn) | 13.35
43 | CC(C)c1cccc(C(C)C)c1O [PROPOFOL] | 17.57
44 | C[C@H](CCC(=O)O)[C@H]1CC[C@H]2[C@@H]3[C@@H](O)C[C@@H]4C[C@H](O)CC[C@]4(C)[C@H]3CC[C@]12C [URSODIOL] | 6.14
45 | CN[C@@H]1C[C@@H](c2ccc(Cl)c(Cl)c2)c2ccccc21.Cl [INDATRALINE HYDROCHLORIDE] | 11.95
46 | CN1CCC[C@H]1c1cccnc1 [NICOTINE] | 11.55
47 | Br.COc1ccc2c3c1O[C@H]1C[C@@H](O)C=C[C@@]31CCN(C)C2 [GALANTAMINE HYDROBROMIDE] | 25.98
48 | CN1C(=O)CN=C(c2ccccc2)c2cc(Cl)ccc21 [DIAZEPAM] | 30.31
49 | CCOC(=O)C1(c2ccccc2)CCN(CCC(C#N)(c2ccccc2)c2ccccc2)CC1.Cl [DIPHENOXYLATE HYDROCHLORIDE] | 19.63
50 | Cc1c(OCC(F)(F)F)ccnc1C[S+]([O-])c1nc2ccccc2[nH]1 (stereo not drawn) [LANSOPRAZOLE] | 5.8

Molecules listed so far with a CF3 group, in the order listed:
Row | Compound | Inhibition [%]
17 | CC(C)C(=O)Nc1ccc([N+](=O)[O-])c(C(F)(F)F)c1 [FLUTAMIDE] | 31.86
32 | CNCCC(Oc1ccc(C(F)(F)F)cc1)c1ccccc1.Cl (stereo not drawn) [FLUOXETINE HYDROCHLORIDE] | 17.55
50 | Cc1c(OCC(F)(F)F)ccnc1C[S+]([O-])c1nc2ccccc2[nH]1 (stereo not drawn) [LANSOPRAZOLE] | 5.8

The list continues:

Row | Compound | Inhibition [%]
51 | Cl.O=C1c2cccc3c2[C@H](CCC3)CN1[C@@H]1CN2CCC1CC2 [PALONOSETRON HYDROCHLORIDE] | 23.39
52 | CC[N+](C)(C)c1cccc(O)c1.[Cl-] [EDROPHONIUM CHLORIDE] | 20.09
53 | O=C(O)C(Cl)Cl [DICHLOROACETIC ACID] | 21.11
54 | CC(C)NCC(O)c1ccc(O)c(O)c1.Cl (stereo not drawn) [ISOPROTERENOL HYDROCHLORIDE] | 25
55 | COc1ccc(C(CN(C)C)C2(O)CCCCC2)cc1.Cl (stereo not drawn) [VENLAFAXINE HYDROCHLORIDE] | 10.29
56 | Cc1nnc2n1-c1ccc(Cl)cc1C(c1ccccc1)=NC2 [ALPRAZOLAM] | 23.3
57 | Cl.FC(F)(F)c1cccc(N2CCNCC2)c1 [N- (3-TRIFLUOROMETHYLPHENYL)PIPERAZINE HYDROCHLORIDE (TFMPP)] | 7.81
58 | CC(=O)OCC[N+](C)(C)C.[Cl-] [ACETYLCHOLINE CHLORIDE] | 19.09
59 | COCCCOc1ccnc(C[S+]([O-])c2nc3ccccc3[nH]2)c1C (stereo not drawn) [RABEPRAZOLE] | 18.15
60 | CC(COc1ccccc1)N(CCCl)Cc1ccccc1.Cl (stereo not drawn) [PHENOXYBENZAMINE HYDROCHLORIDE] | 16.81
61 | CCOC(=O)c1cncn1[C@H](C)c1ccccc1 [ETOMIDATE] | 8.53
62 | CC(O)(CS(=O)(=O)c1ccc(F)cc1)C(=O)Nc1ccc(C#N)c(C(F)(F)F)c1 (stereo not drawn) [BICALUTAMIDE] | 15.75
63 | Cc1ccc(-c2nc3ccc(C)cn3c2CC(=O)N(C)C)cc1.Cc1ccc(-c2nc3ccc(C)cn3c2CC(=O)N(C)C)cc1.O=C(O)C(O)C(O)C(=O)O [ZOLPIDEM TARTRATE] | 22.8
64 | Cl.Oc1ccc2c3c1OC1C(O)CC[C@@]4(O)[C@@H](C2)N(CC2CCC2)CC[C@]314 (stereo partly drawn) | 15.32
65 | Cl.Cl.OCCN1CCN(CCCN2c3ccccc3Sc3ccc(C(F)(F)F)cc32)CC1 [FLUPHENAZINE HYDROCHLORIDE] | 21.6
66 | Cl.O[C@@H]1CCCC[C@H]1N1CCC(c2ccccc2)CC1 | 20.4
67 | CCOC(=O)C1=C(COCCN)NC(C)=C(C(=O)OC)C1c1ccccc1Cl (stereo not drawn) [AMLODIPINE] | 5.93
68 | Cl.O.Oc1ccc2c3c1O[C@H]1c4[nH]c5ccccc5c4C[C@@]4(O)C(C2)N(CC2CC2)CC[C@]314 | 9.13
69 | CC(C(=O)O)c1ccc(-c2ccccc2)c(F)c1 (stereo not drawn) [FLURBIPROFEN] | 19.06
70 | O=C(O)CCCc1ccc(N(CCCl)CCCl)cc1 [CHLORAMBUCIL] | 17.67
71 | CC[C@@H](C(N)=O)N1CCCC1=O | 24.79
72 | COc1ccc(CCN)cc1OC | 24.31
73 | Oc1ncnc2[nH]ncc12 [ALLOPURINOL] | 22.61

As a short view, 2 of the compounds above.
Row | Compound | Inhibition [%]
28 | Cl.NCCc1ccc(O)c(O)c1 [DOPAMINE HYDROCHLORIDE] | 19.73
29 | NC1=NC(=O)C(c2ccccc2)O1 (stereo not drawn) [PEMOLINE] | 28.09
